This assay relates to Salmonella enterica serovar Typhimurium SL1344. In words: bacterial growth OD600 after 18 h with compound and polymyxin B; higher = more bacterial growth (less inhibition). Particulars: 50 µM, Mueller-Hinton broth.

Structures are written as SMILES. Some of the results follow. Values are raw readings; no control value is given beside them.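 First-pass screen: polymyxin B was added at a level that permeabilizes the Salmonella outer membrane while sparing the inner membrane. DMSO wells, with and without polymyxin B, defined maximum growth. Because plates differed from one another, each plate's data were ranked separately and the compounds with the lowest OD600 were carried forward as hits.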

Take `COc1ccc(CCN2C(=O)O[C@@H]3CN(c4cnccn4)C[C@@H]32)cc1`: the “bacterial growth OD600” value (polymyxin B 1 µg/mL) was 0.694.

With `Cc1nc(N2CCCC2C(=O)NC2CCOC(C)(C)C2)nc2cc(S(C)(=O)=O)ccc12` (configuration not stated), the “bacterial growth OD600” value (polymyxin B 0.75 µg/mL) was found to be 0.863.

For the compound `CN(Cc1ccno1)C(=O)CC(c1ccccc1)c1ccccc1F` (configuration not stated), the “bacterial growth OD600” value (polymyxin B 0.75 µg/mL) came to 0.535.

For the compound `CCN(CC)C(=O)C1CCCN(Cc2nc(Cc3cccc(C(F)(F)F)c3)no2)C1` (configuration not stated), the “bacterial growth OD600” value (polymyxin B 1 µg/mL) came out at 0.74.

Take `O=C(NCCCn1nnc2ccccc21)c1cn(CC2CCCO2)nn1` (configuration not stated): the “bacterial growth OD600” value (polymyxin B 1 µg/mL) came to 0.932.

In the case of `COc1cc(CC2(CCC(=O)N(C)Cc3nc(-c4ccccc4)no3)CCC(=O)N2)ccc1F` (configuration not stated), the “bacterial growth OD600” value (polymyxin B 0.75 µg/mL) was determined as 0.801.

With `COC(=O)c1ccc([C@@H]2C[C@H]3CN(C)C(=O)[C@]34CCCN24)cc1`, the “bacterial growth OD600” value (polymyxin B 0.75 µg/mL) is 0.844.

As to `CCCS(=O)(=O)N1CCC2(CCCN(CCC3CCCCC3)C2=O)C1` (configuration not stated), under “polymyxin B 1 µg/mL”, the “bacterial growth OD600” value turned out to be 0.969.

Turning to `Cc1oc(-c2ccc(C(F)(F)F)cc2)nc1CN1CCCCC1c1cccnc1` (configuration not stated), under “polymyxin B 1 µg/mL”, the “bacterial growth OD600” value worked out at 0.024.

In the case of `C=CCC(O)(CC=C)CNC(=O)c1oc2ccc(C)cc2c1C`, under “polymyxin B 1 µg/mL”, the “bacterial growth OD600” value amounted to 0.79.

For `Cc1c(C(C)NC(=O)C2=CC(=O)CC(C)(C)O2)cnn1-c1ccccn1` (configuration not stated), the “bacterial growth OD600” value (polymyxin B 0.75 µg/mL) was 0.958.

In the case of `c1ccc(-c2noc3c2CN(Cc2ccoc2)CC3)cc1`, the “bacterial growth OD600” value (polymyxin B 0.75 µg/mL) was 0.805.

In the case of `CCn1nc(C)c(CNC(=O)CCC2(Cc3ccc(OC)cc3F)CCC(=O)N2)c1C` (configuration not stated), the “bacterial growth OD600” value (polymyxin B 0.75 µg/mL) worked out at 0.875.

As for `COc1ccc(CC2(CCC(=O)NC(C)Cn3ccc4ccccc43)CCC(=O)N2)c(F)c1` (configuration not stated), under “polymyxin B 0.75 µg/mL”, the “bacterial growth OD600” value is 0.905.

Take `COCC(=O)NC1CCCc2nc(-c3ccccc3)ncc21` (configuration not stated): the “bacterial growth OD600” value (polymyxin B 1 µg/mL) is 0.853.

On to `Cc1cc(C(=O)N2CCCC(CNS(=O)(=O)c3cccs3)C2)nn1C` (configuration not stated), for which the “bacterial growth OD600” value (polymyxin B 1 µg/mL) amounted to 0.903.

Regarding `O=C(CCC1CCN(Cc2cc3ccccc3s2)CC1)NCc1cccnc1`, for the setting “polymyxin B 1 µg/mL”, the “bacterial growth OD600” value was found to be 0.883.

As to `COc1ccc(OCc2cc(C(=O)N3CCCC(O)C3)n[nH]2)c(Cl)c1` (configuration not stated), the “bacterial growth OD600” value (polymyxin B 0.75 µg/mL) came to 0.884.

Consider `COc1ccc(CC2(CO)CCN(Cc3ccc(OC(C)C)cc3)CC2)cc1`, for which the “bacterial growth OD600” value (polymyxin B 1 µg/mL) was determined as 0.99.

In the case of `CC(=O)C1(c2ccccc2)CCN(c2nncc(-c3ccccc3F)n2)CC1`, under “polymyxin B 1 µg/mL”, the “bacterial growth OD600” value was 0.698.

In the case of `COc1cc(CN2CCCC(C(=O)c3ccc(Cl)cc3)C2)cc(OC)c1OC` (configuration not stated), for the setting “polymyxin B 1 µg/mL”, the “bacterial growth OD600” value came out at 0.8.

Consider `Cc1oc(-c2cccs2)nc1CN1CCC(N2CCC(C(=O)NC(C)C)CC2)CC1`, for which, for the setting “polymyxin B 1 µg/mL”, the “bacterial growth OD600” value came to 1.01.

On to `CCn1nc(C)c(CN2CCOc3ccc(CN4CCC(OCc5ccccc5)CC4)cc3C2)c1C`, for which, for the setting “polymyxin B 0.75 µg/mL”, the “bacterial growth OD600” value worked out at 0.905.

With `O=C(Cn1ccnc1)N1CCCC(CCc2c(F)cccc2F)C1` (configuration not stated), the “bacterial growth OD600” value (polymyxin B 0.75 µg/mL) stood at 0.848.

On to `COc1ccc(CCN2CC(C(=O)NC3c4ccccc4-c4ccccc43)CCC2=O)cc1` (configuration not stated), for which the “bacterial growth OD600” value (polymyxin B 1 µg/mL) was 0.724.

On to `CC(C)CN1CCC(C2CCN(C(=O)CCC3=NNC(=O)CC3)C2)CC1` (configuration not stated), for which, for the setting “polymyxin B 0.75 µg/mL”, the “bacterial growth OD600” value turned out to be 0.881.

Consider `CC(=O)c1[nH]c(C)c(C(=O)N2CCC(CCC(=O)NC3CC3)CC2)c1C`, for which, for the setting “polymyxin B 1 µg/mL”, the “bacterial growth OD600” value came to 0.865.

`COc1cc(OC)nc(N2C[C@H]3OC(=O)N(CCc4ccccn4)[C@H]3C2)n1`: for the setting “polymyxin B 0.75 µg/mL”, the “bacterial growth OD600” value amounted to 0.884.

Consider `COc1cccc(-c2cccc(NC(=O)C3CCN(Cc4ccc(CO)o4)CC3)c2)c1`, for which the “bacterial growth OD600” value (polymyxin B 1 µg/mL) was found to be 0.88.

`COCCC(=O)NC1CC(=O)N(CCc2cccc(Cl)c2)C1` (configuration not stated): the “bacterial growth OD600” value (polymyxin B 1 µg/mL) came out at 0.908.

For `O=C(CC(c1ccccc1)c1cccc(Cl)c1)NCCc1c[nH]cn1` (configuration not stated), the “bacterial growth OD600” value (polymyxin B 0.75 µg/mL) is 0.551.

As for `Cc1nc(C)c(CN2CCC(C3CCN(c4ncccn4)CC3)C2)nc1C` (configuration not stated), the “bacterial growth OD600” value (polymyxin B 0.75 µg/mL) was determined as 0.869.

(Values after the supplement of paper PMC12889115.)
